Experimental data from PubChem BioAssay AID624297 (National Center for Advancing Translational Sciences (NCATS), 2012).
In all, about 340,000 compounds went through this assay and about 6,200 (1.8%) were called active. The inconclusive results got no clear call from the source; some entries with a clear call stand among them for comparison. Calls follow the shape of the dose curve; as a rule, active = well fitted activation curve with a large enough effect; inconclusive = small, poorly fitted or top-dose-only effect; inactive = no such curve, though single readings can be large or run the other way. A potency beside an inconclusive call is a rough fit, not a confirmed value.

Assay: A quantitative high throughput screen for small molecules that induce DNA re-replication in SW480 colon adenocarcinoma cells. Also: nearly all actives have a fitted effect of over 55% in size. As to re-replication activation: % of control where 0% means no effect.
Conditions: Hoechst DNA content imaging, 48 h; re-replication activation: at 46.1 µM (top of the series) unless noted
Outline: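 Cells (250 per well) received 23 nL compound or DMSO by pin tool and were kept 48 hr at 37 C, 5% CO2. Nuclei were then stained with Hoechst for 40 min and scanned for DNA content.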
Potency is read from the fitted curve at half-maximal effect.

| Compound | Potency | re-replication activation |
| --- | --- | --- |
| CCC(CC)C(=O)N(CCc1ccc(OC)cc1)Cc1nc2ccccc2c(=O)[nH]1 | active: 20.6 µM |  |
| CCCS(=O)(=O)Nc1ccc(N2CCCCC2)c(S(=O)(=O)Nc2ccccc2OC)c1 | inconclusive: 29.1 µM [activator, partial curve, poor fit] |  |
| CCC1CCCCN1S(=O)(=O)c1ccc(NC(=O)c2nc(S(C)(=O)=O)ncc2Cl)cc1 (stereo unspecified) | inconclusive: 0.517 µM [activator, partial curve, poor fit] |  |
| Nc1nc(Cl)cc(Sc2ccc3ccccc3c2)n1 | inconclusive: 29.1 µM [activator, single point] |  |
| Cc1cc(C)c(OCCCCN(C)Cc2ccccc2)c(C)c1 |  | inactive: 0.35% |
| CCCCC#Cc1ccc(C(=O)NNC(=O)Nc2cc(Cl)cc(Cl)c2)o1 | inconclusive: 29.1 µM [activator, single point] |  |
| CC12CCC(=O)N1C(C(=O)N1CCN(S(=O)(=O)c3ccc(F)c(F)c3)CC1)CS2 (stereo unspecified) | inconclusive: 2.91 µM [activator, full curve, poor fit] |  |
| O=C(/C=C1\NC2(CCCC2)Cc2ccccc21)C(=O)N/N=C/c1ccc(O)c(O)c1 | inconclusive: 29.1 µM [activator, single point] |  |
| Cc1onc(-c2ccc3c(c2)OCO3)c1-c1ccc2[nH]ccc2c1 | inconclusive: 29.1 µM [activator, single point] |  |
| COc1ccccc1NS(=O)(=O)c1ccc2oc(=O)ccc2c1 | inconclusive: 25.9 µM [activator, single point] |  |
| O=C(NNC(=O)c1ccccc1F)c1ccc(-c2ccc(Cl)cc2)o1 | inconclusive: 7.31 µM [activator, partial curve, poor fit] |  |
| N#Cc1ccc(-c2csc(NNC(=O)c3ccccc3)n2)cc1 | inconclusive: 20.6 µM [activator, single point] |  |
| COc1ccc(C(=O)NCCN(C)C)c2nc3ccccc3cc12 | inconclusive: 16.4 µM [activator, single point] |  |
| CCc1nc2ccccc2c(C(=O)OCC(=O)N2CC(C)OC(C)C2)c1C (stereo unspecified) | inconclusive: 16.4 µM [activator, partial curve, poor fit] |  |
| COC(=O)CSC1=C(C#N)C(c2cccc(OC)c2)CC(=O)N1 (stereo unspecified) |  | inactive: 11.5% |
| O=C(O)CCCNC(=O)c1ccccn1 | inconclusive: 4.11 µM [activator, single point] |  |
| COc1ccccc1NC(=O)CN1C(=O)CC(C)S(=O)(=O)c2ccccc21 (stereo unspecified) |  | inactive: 5.27% |
| O=C(Cc1cccs1)Nc1ccc(-c2nnn(CC(=O)N3CCOCC3)n2)cc1 | inconclusive: 16.4 µM [activator, single point] |  |
| Cc1ccc2ccc3ccc(C)nc3c2n1 | inconclusive: 0.116 µM [activator, full curve, poor fit] |  |
| Cc1cccn2c(=O)nc(SCC(=O)NCc3ccc(F)cc3)nc12 |  | inactive: 6.66% |
| CCOc1cc(C=C(C(=O)OC)C(=O)OC)ccc1OCc1ccc([N+](=O)[O-])cc1 | active: 14.6 µM |  |
| CCCCOc1ccc(C(O)C(CN2CCCCC2)c2ccccc2)cc1 (stereo unspecified) | inconclusive: 23.1 µM [activator, single point] |  |
| Cc1cc(-c2cn3ccccc3n2)c(C)n1-c1ccccc1 | inconclusive: 20.6 µM [activator, partial curve, poor fit] |  |
| Cc1ccc(N(Cc2cc3cc(C)ccc3[nH]c2=O)S(=O)(=O)c2ccccc2)cc1 | active: 18.4 µM |  |

| Compound | Potency | re-replication activation |
| --- | --- | --- |
| CC(=O)c1ccc(N2CCN(CC(=O)Nc3ccc4c(c3)OCCO4)CC2)cc1 |  | inactive: 0.15% |
| COc1ccc(NS(=O)(=O)c2cc(C)ccc2NC(=O)c2cc(C)oc2C)cc1 | active: 0.731 µM |  |
| COc1ccc(N(C(=O)c2snc(C(N)=O)c2N)C(C(=O)NC2CCCCC2)c2ccc(C)o2)cc1 (stereo unspecified) | inconclusive: 29.1 µM [activator, single point] |  |
| Cc1cc2c(OCC(O)CNCc3ccco3)cccc2[nH]1 (stereo unspecified) | inconclusive: 11.6 µM [activator, partial curve] |  |
| COc1ccc(N/N=C(\C#N)C(=N)N2CCCCC2)cc1 |  | inactive: -13.7% |
| Cc1ccccc1OCC(=O)Nc1ccc(N2CCN(C)CC2)c(Cl)c1 | inconclusive: 25.9 µM [activator, single point] |  |
| O=[N+]([O-])c1cc(C(F)(F)F)ccc1NCCc1c[nH]c2ccccc12 |  | inactive: 14.7% |
| Clc1ccccc1OCCCn1ccnc1 | inconclusive: 18.4 µM [activator, single point] |  |
| COc1ccc(C2(C)NC(=O)N(CC(=O)Nc3ccc(-c4nc5ccc(C)cc5s4)cc3)C2=O)cc1 (stereo unspecified) | inconclusive: 18.4 µM [activator, single point] |  |
| O=C(NCc1ccccc1)C(c1ccccc1)N(Cc1ccc2c(c1)OCO2)C(=O)Cc1cccs1 (stereo unspecified) |  | inactive: 5.12% |
| COc1cc2c(cc1OC)C1=NC(=O)CN1C(SCc1ccccc1C)=N2 |  | inactive: -14.3% |
| O=C(NCC1CCCO1)c1cccc(S(=O)(=O)N2CCCCC2)c1 (stereo unspecified) | inconclusive: 0.116 µM [activator, full curve, poor fit] |  |
| c1ccc2c(CCNc3ncnc4nc[nH]c34)c[nH]c2c1 | inconclusive: 18.4 µM [activator, partial curve] |  |
| COc1ccc2nc(-c3ccco3)c(-c3ccco3)nc2c1 | inconclusive: 29.1 µM [activator, single point] |  |
| O=C(COc1cccc(F)c1)Oc1ccc(C(=O)c2ccccc2)cc1 | inconclusive: 6.51 µM [activator, single point] |  |
| O=C(CCN1C(=O)c2ccccc2C1=O)Nc1ccc(-c2nc3ccccc3s2)cc1 | inconclusive: 20.6 µM [activator, single point] |  |
| COc1cccc(/C=N/c2nc3ccccc3n2C)c1O | inconclusive: 29.1 µM [activator, single point] |  |
| Cc1ccc(OCCNC(=O)C(=O)NCc2ccco2)cc1 | active: 10.3 µM |  |
| O=C(NCc1cccs1)c1cc(-c2ccccc2)on1 |  | inactive: -0.243% |
| COc1cc(NCc2ccccc2O)c2ncccc2c1 |  | inactive: 8.79% |
| CCOCC(=O)NC1CCc2cc(OC)c(OC)c(OC)c2-c2ccc(SC)c(=O)cc21 (stereo unspecified) | active: 0.0517 µM |  |
| O=C(CSc1nc(Nc2ccccc2)nc(N2CCOCC2)n1)Nc1ccccc1Cl | inconclusive: 18.4 µM [activator, single point] |  |
| Cc1nn(CC(=O)Nc2ccccn2)c(C)c1Br |  | inactive: -1.62% |
| Cc1ccc(C(C)C)c(OCc2nn(CC(=O)c3ccc(OC(F)F)cc3)c3[n+]2CCCCC3)c1 |  | inactive: -5.58% |

2 compounds picked at random from the list so far, as already listed:

| Compound | Potency | re-replication activation |
| --- | --- | --- |
| O=C(NCc1cccs1)c1cc(-c2ccccc2)on1 |  | inactive: -0.243% |
| O=[N+]([O-])c1cc(C(F)(F)F)ccc1NCCc1c[nH]c2ccccc12 |  | inactive: 14.7% |

Going on with the list:

| Compound | Potency | re-replication activation |
| --- | --- | --- |
| O=C1C=Cc2cccc3ccc(O)c1c23 | inconclusive: 29.1 µM [activator, single point] |  |
| Oc1ccccc1-c1n[nH]c(-c2ccccc2O)n1 | inconclusive: 4.11 µM [activator, full curve] |  |
| CCOC(=O)c1ccccc1NC(=O)c1cc(S(=O)(=O)N2CCOCC2)ccc1F |  | inactive: -2.1% |
| CCOc1ccccc1-c1nc(-c2ccc(NC(=O)Cc3ccc(OC)cc3)cc2)no1 |  | inactive: 3.17% |
| COc1ccc(C)cc1S(=O)(=O)N1CCN(C(=O)c2ncoc2-c2cccc(C)c2)CC1 |  | inactive: -1.39% |
| O=C(N/N=C/C=C/c1ccccc1[N+](=O)[O-])c1cc(-c2cccnc2)nc2ccccc12 | inconclusive: 18.4 µM [activator, single point] |  |
| COc1ccccc1NC(=O)COc1ccc(Br)cc1CNCCCN1CCOCC1 | inconclusive: 29.1 µM [activator, partial curve, poor fit] |  |
| CCCc1nc2nc(C)c(NS(=O)(=O)c3ccc(CC(C)C)cc3)c(=O)n2[nH]1 | inconclusive: 0.251 µM [activator, full curve, poor fit] |  |
| CC(C)c1onc(C(=O)Nc2cccc(O)c2)c1[N+](=O)[O-] | inconclusive: 6.51 µM [activator, single point] |  |
| O=C(CN1C(=O)/C(=C\c2ccccc2Cl)Oc2ccccc21)NCc1cccnc1 | inconclusive: 29.1 µM [activator, partial curve, poor fit] |  |
| CCC(CO)Oc1cc(NCc2ccc(C(F)(F)F)cc2)c2ncn(C(C)C)c2c1 (stereo unspecified) | inconclusive: 9.2 µM [activator, partial curve, poor fit] |  |
| CC(C)(C)c1cc(C(=O)NN)n(Cc2ccc(F)cc2)n1 | inconclusive: 29.1 µM [activator, single point] |  |
| CC(=O)N1CCN(C2c3cccc4cccc(c34)C2NS(=O)(=O)c2ccccc2)CC1 (stereo unspecified) |  | inactive: -1.91% |
| O=C(CCOc1ccccc1)Nc1ccc(Cl)c(S(=O)(=O)N2CCOCC2)c1 |  | inactive: 0.297% |
| Cn1c(=O)c(C(=O)Nc2ccccn2)c(O)c2ccccc21 |  | inactive: 2.5% |
| C/C(=N\NC(=S)NCCc1ccccc1)c1ccc(C#N)cc1 | inconclusive: 20.6 µM [activator, single point] |  |
| Cc1nc2c(Br)cc(Br)cc2c(=O)n1-c1ccccc1NC1OCC(O)C(O)C1O (stereo unspecified) | inconclusive: 23.1 µM [activator, single point] |  |
| COc1cccc(OC)c1OCCNCC1COc2ccccc2O1 (stereo unspecified) | inconclusive: 0.231 µM [activator, single point] |  |
| CN(C)CCN1CC(O)=C(c2nc3ccccc3s2)C1=N |  | inactive: 3.02% |
| COc1ccc([N+](=O)[O-])cc1N(CC(=O)N(C)C)S(C)(=O)=O |  | inactive: -3.34% |
| O=C1OCc2ccc(NC(=O)c3c(F)cccc3Cl)cc21 | inconclusive: 29.1 µM [activator, single point] |  |
| O=C(NC(=S)NC(CO)c1ccccc1)c1ccc(F)cc1 (stereo unspecified) |  | inactive: -6% |
| COc1ccc(C(NC(=O)CN2C(=O)NC3(CCc4ccccc43)C2=O)c2ccc(OC)cc2)cc1 (stereo unspecified) | inconclusive: 20.6 µM [activator, single point] |  |

3 successive compounds from above:

| Compound | Potency | re-replication activation |
| --- | --- | --- |
| CCOC(=O)c1ccccc1NC(=O)c1cc(S(=O)(=O)N2CCOCC2)ccc1F |  | inactive: -2.1% |
| CCOc1ccccc1-c1nc(-c2ccc(NC(=O)Cc3ccc(OC)cc3)cc2)no1 |  | inactive: 3.17% |
| COc1ccc(C)cc1S(=O)(=O)N1CCN(C(=O)c2ncoc2-c2cccc(C)c2)CC1 |  | inactive: -1.39% |
